These results are taken from paper PMC7173924.

Protein sequences, listed by entry. Tags and fused reporters are not part of them.
UniProt Q9UJ55: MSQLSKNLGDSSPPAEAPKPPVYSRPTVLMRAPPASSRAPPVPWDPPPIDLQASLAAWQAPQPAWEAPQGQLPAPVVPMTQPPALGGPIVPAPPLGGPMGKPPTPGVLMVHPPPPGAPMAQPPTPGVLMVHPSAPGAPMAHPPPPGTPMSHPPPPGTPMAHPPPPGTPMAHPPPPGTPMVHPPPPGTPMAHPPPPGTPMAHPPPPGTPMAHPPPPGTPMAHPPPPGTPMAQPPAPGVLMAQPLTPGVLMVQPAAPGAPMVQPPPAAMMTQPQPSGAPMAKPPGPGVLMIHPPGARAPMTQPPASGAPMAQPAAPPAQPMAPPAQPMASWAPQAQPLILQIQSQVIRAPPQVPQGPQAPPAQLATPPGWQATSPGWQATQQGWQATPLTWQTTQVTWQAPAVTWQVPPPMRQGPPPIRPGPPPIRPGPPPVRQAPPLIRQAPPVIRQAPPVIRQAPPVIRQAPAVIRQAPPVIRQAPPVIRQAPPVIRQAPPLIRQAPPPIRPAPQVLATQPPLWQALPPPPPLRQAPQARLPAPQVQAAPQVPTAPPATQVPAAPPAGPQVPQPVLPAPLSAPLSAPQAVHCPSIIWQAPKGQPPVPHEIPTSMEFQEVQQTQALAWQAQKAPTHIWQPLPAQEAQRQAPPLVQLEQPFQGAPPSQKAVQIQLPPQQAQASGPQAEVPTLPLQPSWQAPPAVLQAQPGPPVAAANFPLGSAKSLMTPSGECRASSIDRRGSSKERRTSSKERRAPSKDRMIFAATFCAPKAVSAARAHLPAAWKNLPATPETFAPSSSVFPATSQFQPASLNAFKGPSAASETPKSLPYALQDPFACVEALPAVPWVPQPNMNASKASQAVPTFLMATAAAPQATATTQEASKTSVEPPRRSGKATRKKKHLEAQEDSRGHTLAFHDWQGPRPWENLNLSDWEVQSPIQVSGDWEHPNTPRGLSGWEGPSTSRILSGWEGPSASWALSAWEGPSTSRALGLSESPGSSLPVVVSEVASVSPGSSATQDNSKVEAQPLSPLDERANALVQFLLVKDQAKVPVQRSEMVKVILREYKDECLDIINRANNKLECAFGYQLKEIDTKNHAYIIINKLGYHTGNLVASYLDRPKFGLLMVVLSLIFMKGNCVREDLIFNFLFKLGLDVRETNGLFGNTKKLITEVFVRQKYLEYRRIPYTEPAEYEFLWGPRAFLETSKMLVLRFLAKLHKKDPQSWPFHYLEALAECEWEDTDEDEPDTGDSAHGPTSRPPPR

Results are given in words; binding and its absence hold for the method and conditions named. Binding seen in cells or lysates may run through a third protein. A yes stands for co-enrichment or nearness to the bait. Other partners may have been found. Where a sequence is shown, tags or fusion partners need not be part of it.

The test deals with BirA*-MAGEL2 (FLAG-tagged biotin ligase-fusion protein, wild type) (human) (UniProt Q9UJ55). Nature of the test: proximity labelling; BioID in U2OS cells transiently co-transfected with a BirA* fusion (bait) and an epitope-tagged prey; 50 uM biotin, 24 h; streptavidin agarose affinity purification of the lysate, immunoblot of input and bound.

B1: GFP-CRY2 (protein, UniProt Q49AN0 1-593)
chain: MAATVATAAAVAPAPAPGTDSASSVHWFRKGLRLHDNPALLAAVRGARCVRCVYILDPWFAASSSVGINRWRFLLQSLEDLDTSLRKLNSRLFVVRGQPADVFPRLFKEWGVTRLTFEYDSEPFGKERDAAIMKMAKEAGVEVVTENSHTLYDLDRIIELNGQKPPLTYKRFQAIISRMELPKKPVGLVTSQQMESCRAEIQENHDETYGVPSLEELGFPTEGLGPAVWQGGETEALARLDKHLERKAWVANYERPRMNANSLLASPTGLSPYLRFGCLSCRLFYYRLWDLYKKVKRNSTPPLSLFGQLLWREFFYTAATNNPRFDRMEGNPICIQIPWDRNPEALAKWAEGKTGFPWIDAIMTQLRQEGWIHHLARHAVACFLTRGDLWVSWESGVRVFDELLLDADFSVNAGSWMWLSCSAFFQQFFHCYCPVGFGRRTDPSGDYIRRYLPKLKAFPSRYIYEPWNAPESIQKAAKCIIGVDYPRPIVNHAETSRLNIERMKQIYQQLSRYRGLCLLASVPSCVEDLSHPVAEPSSSQAGSMSSAGPRPLPSGPASPKRKLEAAEEPPGEELSKRARVAELPTPELPSKDA
In the case of B1, the binding entry was “binds”.
